Reference: patent US20050234225A1
These are yes or no findings as the source states them, for the method shown. Some entries that bind do so weakly or less than the wild type.

Chains of the proteins cited; added tags and fusions are not shown. Residues count along the entry.
UniProt P35968, residues 20-764: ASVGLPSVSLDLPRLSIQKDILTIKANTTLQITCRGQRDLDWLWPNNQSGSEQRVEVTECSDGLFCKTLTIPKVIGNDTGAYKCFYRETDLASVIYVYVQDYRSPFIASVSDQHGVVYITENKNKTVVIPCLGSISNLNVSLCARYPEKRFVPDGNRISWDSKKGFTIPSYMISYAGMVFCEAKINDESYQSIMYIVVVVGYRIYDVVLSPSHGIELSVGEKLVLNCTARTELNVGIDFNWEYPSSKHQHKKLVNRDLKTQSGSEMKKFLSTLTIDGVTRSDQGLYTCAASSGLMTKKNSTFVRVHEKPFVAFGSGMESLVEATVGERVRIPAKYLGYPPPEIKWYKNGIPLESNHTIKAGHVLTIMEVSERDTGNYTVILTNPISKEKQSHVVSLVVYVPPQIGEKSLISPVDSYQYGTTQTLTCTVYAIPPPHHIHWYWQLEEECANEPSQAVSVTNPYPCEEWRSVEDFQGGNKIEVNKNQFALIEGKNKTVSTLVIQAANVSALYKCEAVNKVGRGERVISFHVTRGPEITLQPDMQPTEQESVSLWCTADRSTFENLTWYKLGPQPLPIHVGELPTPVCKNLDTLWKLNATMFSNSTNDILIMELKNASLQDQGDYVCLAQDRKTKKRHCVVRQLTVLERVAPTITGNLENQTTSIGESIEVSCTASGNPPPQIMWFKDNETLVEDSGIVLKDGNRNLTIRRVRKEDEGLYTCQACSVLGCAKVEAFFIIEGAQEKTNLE

Biological target: KDR-alkaline phosphatase (AP) soluble fusion protein (human) (UniProt P35968)
Test: selection from second phage library on KDR

binding: binds
B1: SF7 Fab (Fab, V domains shown)
VH: EVQLVQSGGGLVKPGGSLRLSCAASGFTFSSYSMNWVRQAPGKGLEWVSSISSSSSYIYYADSVKGRFTISRDNAKNSLYLQMNSLRAEDTAVYYCARVTDAFDIWGQGTMVTVSS
VL: QSVLTQPPSVSGAPGQRVTISCTGSHSNFGAGTDVHWYQHLPGTAPRLLIHGDTHRPSGVADRFSGSRSGASASLAITGLRVEDEADYYCQSYDYGLRGWVFGGGTKLTVL
